In PMC11102558:
Results are given in words; binding and its absence hold for the method and conditions named. In cells and extracts the contact can be indirect. Some binding calls cover weakened binding; strength is not graded here. For part of these data: Tags and fused reporters may be left off the sequences shown.

Sequences of proteins named here, by UniProt entry; tags and fusion partners are left off.
UniProt P46940: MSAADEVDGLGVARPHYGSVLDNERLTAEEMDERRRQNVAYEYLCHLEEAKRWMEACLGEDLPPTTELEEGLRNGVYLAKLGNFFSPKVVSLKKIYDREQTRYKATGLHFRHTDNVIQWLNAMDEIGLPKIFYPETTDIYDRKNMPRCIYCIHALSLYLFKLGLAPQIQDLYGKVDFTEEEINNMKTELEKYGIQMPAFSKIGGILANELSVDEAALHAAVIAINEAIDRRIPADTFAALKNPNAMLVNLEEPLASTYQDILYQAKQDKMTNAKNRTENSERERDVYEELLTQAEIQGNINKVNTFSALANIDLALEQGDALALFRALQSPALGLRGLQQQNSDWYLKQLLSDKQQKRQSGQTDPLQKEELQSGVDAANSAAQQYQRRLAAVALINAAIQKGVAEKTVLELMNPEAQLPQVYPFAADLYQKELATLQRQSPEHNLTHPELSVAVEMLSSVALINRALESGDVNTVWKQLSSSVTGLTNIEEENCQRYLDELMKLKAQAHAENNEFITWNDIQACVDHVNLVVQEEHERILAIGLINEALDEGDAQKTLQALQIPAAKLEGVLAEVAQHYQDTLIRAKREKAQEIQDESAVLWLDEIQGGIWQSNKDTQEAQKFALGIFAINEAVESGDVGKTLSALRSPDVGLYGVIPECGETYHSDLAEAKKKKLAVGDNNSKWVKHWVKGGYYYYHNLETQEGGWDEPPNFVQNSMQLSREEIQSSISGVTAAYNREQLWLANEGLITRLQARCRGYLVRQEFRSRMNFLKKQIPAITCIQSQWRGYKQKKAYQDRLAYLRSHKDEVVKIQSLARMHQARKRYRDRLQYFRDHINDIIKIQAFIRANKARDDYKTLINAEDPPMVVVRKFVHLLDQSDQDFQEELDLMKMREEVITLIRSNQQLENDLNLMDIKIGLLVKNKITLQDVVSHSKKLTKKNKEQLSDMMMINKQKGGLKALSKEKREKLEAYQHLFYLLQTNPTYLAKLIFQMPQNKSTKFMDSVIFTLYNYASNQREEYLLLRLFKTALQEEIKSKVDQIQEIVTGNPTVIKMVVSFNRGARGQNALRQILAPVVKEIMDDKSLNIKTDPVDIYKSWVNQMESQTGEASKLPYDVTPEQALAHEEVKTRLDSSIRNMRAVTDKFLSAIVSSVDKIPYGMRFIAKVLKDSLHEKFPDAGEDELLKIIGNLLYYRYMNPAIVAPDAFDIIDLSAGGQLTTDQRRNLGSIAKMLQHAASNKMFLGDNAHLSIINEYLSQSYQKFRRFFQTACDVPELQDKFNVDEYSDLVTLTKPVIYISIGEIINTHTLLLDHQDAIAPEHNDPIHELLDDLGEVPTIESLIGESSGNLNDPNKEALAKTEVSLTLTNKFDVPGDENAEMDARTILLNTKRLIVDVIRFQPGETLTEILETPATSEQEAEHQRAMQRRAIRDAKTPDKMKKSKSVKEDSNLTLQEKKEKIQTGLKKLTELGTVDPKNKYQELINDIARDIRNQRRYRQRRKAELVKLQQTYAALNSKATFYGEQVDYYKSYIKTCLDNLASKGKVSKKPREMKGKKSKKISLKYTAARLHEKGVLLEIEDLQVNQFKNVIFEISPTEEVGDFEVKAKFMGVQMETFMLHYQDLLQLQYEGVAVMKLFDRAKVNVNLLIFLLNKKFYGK

What was measured:
[1] = molecular target: T1, FLAG-tagged ROBO4 expressed in COS-7 cells (pHMEF5-ROBO4-FLAG) (UniProt Q8WZ75); assay: co-IP; COS-7 cells transfected with FLAG-tagged ROBO4 and Myc-tagged IQGAP1, 24 h; lysates immunoprecipitated with anti-FLAG antibody; western blotting
T1 sequence: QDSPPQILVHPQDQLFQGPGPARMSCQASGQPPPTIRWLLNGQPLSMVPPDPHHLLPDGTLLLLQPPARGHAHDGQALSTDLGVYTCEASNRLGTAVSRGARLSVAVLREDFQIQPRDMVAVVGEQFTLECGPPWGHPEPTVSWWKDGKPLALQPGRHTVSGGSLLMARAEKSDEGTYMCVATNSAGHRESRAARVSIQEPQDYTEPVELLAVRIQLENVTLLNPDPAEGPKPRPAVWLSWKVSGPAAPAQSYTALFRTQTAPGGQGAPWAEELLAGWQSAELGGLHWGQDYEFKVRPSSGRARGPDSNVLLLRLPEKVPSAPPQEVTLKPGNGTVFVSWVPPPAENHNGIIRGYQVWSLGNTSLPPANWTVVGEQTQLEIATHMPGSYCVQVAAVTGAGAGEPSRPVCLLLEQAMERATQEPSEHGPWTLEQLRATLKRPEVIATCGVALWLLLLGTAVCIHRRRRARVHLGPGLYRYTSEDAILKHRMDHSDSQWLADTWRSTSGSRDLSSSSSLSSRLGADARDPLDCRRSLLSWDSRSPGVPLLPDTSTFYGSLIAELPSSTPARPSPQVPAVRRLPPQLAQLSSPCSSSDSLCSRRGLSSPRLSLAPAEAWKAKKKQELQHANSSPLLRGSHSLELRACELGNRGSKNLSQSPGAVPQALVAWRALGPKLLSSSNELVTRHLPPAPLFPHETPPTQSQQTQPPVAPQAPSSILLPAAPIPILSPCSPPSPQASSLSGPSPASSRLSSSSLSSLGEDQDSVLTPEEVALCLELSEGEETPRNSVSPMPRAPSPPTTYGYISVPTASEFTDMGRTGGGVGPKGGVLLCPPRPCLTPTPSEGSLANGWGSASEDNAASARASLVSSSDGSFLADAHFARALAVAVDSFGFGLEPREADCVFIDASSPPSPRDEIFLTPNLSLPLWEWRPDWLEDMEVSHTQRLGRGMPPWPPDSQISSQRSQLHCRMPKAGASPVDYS

[2] = molecular target: IQGAP1, endogenous in HEK293 cells (human (endogenous in HEK293)) (UniProt P46940); assay: co-IP; HEK293 cells transfected with ROBO4 and TRAF7 expression vectors; lysates immunoprecipitated with antibody against endogenous IQGAP1 (C-9 AC); western blotting

Molecule | binding [1] | binding [2]
Myc-tagged IQGAP1 expressed in COS-7 cells (pcDNA4-IQGAP1-Myc) (from UniProt P46940 1-1657) | binds | –
ROBO4 expressed in HEK293 cells (pcDNA3-ROBO4) (receptor, UniProt Q8WZ75 28-1007) QDSPPQILVHPQDQLFQGPGPARMSCQASGQPPPTIRWLLNGQPLSMVPPDPHHLLPDGTLLLLQPPARGHAHDGQALSTDLGVYTCEASNRLGTAVSRGARLSVAVLREDFQIQPRDMVAVVGEQFTLECGPPWGHPEPTVSWWKDGKPLALQPGRHTVSGGSLLMARAEKSDEGTYMCVATNSAGHRESRAARVSIQEPQDYTEPVELLAVRIQLENVTLLNPDPAEGPKPRPAVWLSWKVSGPAAPAQSYTALFRTQTAPGGQGAPWAEELLAGWQSAELGGLHWGQDYEFKVRPSSGRARGPDSNVLLLRLPEKVPSAPPQEVTLKPGNGTVFVSWVPPPAENHNGIIRGYQVWSLGNTSLPPANWTVVGEQTQLEIATHMPGSYCVQVAAVTGAGAGEPSRPVCLLLEQAMERATQEPSEHGPWTLEQLRATLKRPEVIATCGVALWLLLLGTAVCIHRRRRARVHLGPGLYRYTSEDAILKHRMDHSDSQWLADTWRSTSGSRDLSSSSSLSSRLGADARDPLDCRRSLLSWDSRSPGVPLLPDTSTFYGSLIAELPSSTPARPSPQVPAVRRLPPQLAQLSSPCSSSDSLCSRRGLSSPRLSLAPAEAWKAKKKQELQHANSSPLLRGSHSLELRACELGNRGSKNLSQSPGAVPQALVAWRALGPKLLSSSNELVTRHLPPAPLFPHETPPTQSQQTQPPVAPQAPSSILLPAAPIPILSPCSPPSPQASSLSGPSPASSRLSSSSLSSLGEDQDSVLTPEEVALCLELSEGEETPRNSVSPMPRAPSPPTTYGYISVPTASEFTDMGRTGGGVGPKGGVLLCPPRPCLTPTPSEGSLANGWGSASEDNAASARASLVSSSDGSFLADAHFARALAVAVDSFGFGLEPREADCVFIDASSPPSPRDEIFLTPNLSLPLWEWRPDWLEDMEVSHTQRLGRGMPPWPPDSQISSQRSQLHCRMPKAGASPVDYS | – | binds
TNF receptor-associated factor 7 (TRAF7) expressed in HEK293 cells (pcDNA3-TRAF7) (enzyme, UniProt Q6Q0C0 1-670) MSSGKSARYNRFSGGPSNLPTPDVTTGTRMETTFGPAFSAVTTITKADGTSTYKQHCRTPSSSSTLAYSPRDEEDSMPPISTPRRSDSAISVRSLHSESSMSLRSTFSLPEEEEEPEPLVFAEQPSVKLCCQLCCSVFKDPVITTCGHTFCRRCALKSEKCPVDNVKLTVVVNNIAVAEQIGELFIHCRHGCRVAGSGKPPIFEVDPRGCPFTIKLSARKDHEGSCDYRPVRCPNNPSCPPLLRMNLEAHLKECEHIKCPHSKYGCTFIGNQDTYETHLETCRFEGLKEFLQQTDDRFHEMHVALAQKDQEIAFLRSMLGKLSEKIDQLEKSLELKFDVLDENQSKLSEDLMEFRRDASMLNDELSHINARLNMGILGSYDPQQIFKCKGTFVGHQGPVWCLCVYSMGDLLFSGSSDKTIKVWDTCTTYKCQKTLEGHDGIVLALCIQGCKLYSGSADCTIIVWDIQNLQKVNTIRAHDNPVCTLVSSHNVLFSGSLKAIKVWDIVGTELKLKKELTGLNHWVRALVAAQSYLYSGSYQTIKIWDIRTLDCIHVLQTSGGSVYSIAVTNHHIVCGTYENLIHVWDIESKEQVRTLTGHVGTVYALAVISTPDQTKVFSASYDRSLRVWSMDNMICTQTLLRHQGSVTALAVSRGRLFSGAVDSTVKVWTC | – | binds
